Measured values reported in publication PMC12412785.
No constants are given. Whether binding was seen depends on the method and setting. Binding can be weak; no strength is given. Sequences can lack the tags named with a protein.

Target: T1, Arabidopsis thaliana BRCA2A (AtBRCA2A), yeast two-hybrid fusion (A. thaliana) (UniProt Q7Y1C5)
T1 sequence: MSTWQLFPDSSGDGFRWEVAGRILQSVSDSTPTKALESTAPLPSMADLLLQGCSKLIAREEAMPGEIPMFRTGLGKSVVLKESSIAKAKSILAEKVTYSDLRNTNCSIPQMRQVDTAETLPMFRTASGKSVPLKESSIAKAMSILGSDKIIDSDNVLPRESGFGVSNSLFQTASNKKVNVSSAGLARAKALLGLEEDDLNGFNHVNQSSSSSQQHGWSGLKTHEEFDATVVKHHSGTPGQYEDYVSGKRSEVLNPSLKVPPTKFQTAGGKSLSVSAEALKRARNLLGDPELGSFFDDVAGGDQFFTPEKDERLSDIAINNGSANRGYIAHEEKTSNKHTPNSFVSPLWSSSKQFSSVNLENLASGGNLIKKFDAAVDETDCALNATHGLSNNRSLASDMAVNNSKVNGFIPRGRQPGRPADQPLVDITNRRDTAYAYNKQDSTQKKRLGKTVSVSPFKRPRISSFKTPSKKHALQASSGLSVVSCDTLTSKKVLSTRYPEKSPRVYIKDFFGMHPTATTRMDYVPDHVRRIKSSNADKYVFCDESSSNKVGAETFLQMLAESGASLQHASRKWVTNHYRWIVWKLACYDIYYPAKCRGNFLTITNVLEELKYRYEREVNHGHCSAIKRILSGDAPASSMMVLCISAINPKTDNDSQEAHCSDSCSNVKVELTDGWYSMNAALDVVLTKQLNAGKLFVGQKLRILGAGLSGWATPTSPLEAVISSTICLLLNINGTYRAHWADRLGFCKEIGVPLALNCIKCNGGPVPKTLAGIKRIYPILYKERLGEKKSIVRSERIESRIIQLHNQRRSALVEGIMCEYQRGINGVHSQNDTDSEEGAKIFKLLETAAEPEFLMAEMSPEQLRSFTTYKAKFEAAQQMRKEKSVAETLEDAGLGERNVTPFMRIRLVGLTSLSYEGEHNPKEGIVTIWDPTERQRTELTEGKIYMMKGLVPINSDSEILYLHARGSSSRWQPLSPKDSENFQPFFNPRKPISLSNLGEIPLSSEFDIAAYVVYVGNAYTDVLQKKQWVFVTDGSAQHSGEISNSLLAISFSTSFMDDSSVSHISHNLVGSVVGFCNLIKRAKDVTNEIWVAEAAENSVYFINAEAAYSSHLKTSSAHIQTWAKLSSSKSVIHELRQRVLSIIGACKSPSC
Assay: two-hybrid; Gal4BD and Gal4AD fusions, AH109 x Y187 diploids, five-fold serial dilutions on SD/-LWH and SD/-LWHA, 3–5 days at 30°C

- binding: binds
Substance: PpRAD51-2, yeast two-hybrid fusion (P. patens)
